Not every detail of the peptide structures is certain; ends, links or a residue may be inferred.
Key:
[1] = system: experimental autoimmune uveitis (EAU); test: Local effect of intravitreal CsA and CsG on experimental autoimmune uveitis (EAU); format: in vivo, Lewis rats; settings: for Treated Eyes # Normal/Total: once on day 11 after S-antigen immunization
[2] = system: experimental autoimmune uveitis (EAU); test: EAU, daily injections of CsA or CsG for 14 or 28 days; format: in vivo, Lewis rats; settings: daily injections from day zero for 14 days
[3] = system: experimental autoimmune uveitis; settings: cited from earlier work

## C/C=C/C[C@@H](C)[C@@H](O)[C@H]1C(=O)N[C@@H](CCC)C(=O)N(C)CC(=O)N(C)[C@@H](CC(C)C)C(=O)N[C@@H](C(C)C)C(=O)N(C)[C@@H](CC(C)C)C(=O)N[C@@H](C)C(=O)N[C@H](C)C(=O)N(C)[C@@H](CC(C)C)C(=O)N(C)[C@@H](CC(C)C)C(=O)N(C)[C@@H](C(C)C)C(=O)N1C [CsG, cyclosporine G]
[1]; 50 ng intravitreal
  Treated Eyes # Normal/Total: 0/6
[1]; 100 ng intravitreal
  Treated Eyes # Normal/Total: 0/6
[1]; 500 ng intravitreal
  Treated Eyes # Normal/Total: 4/7
[1]; at equivalent dosages, masked observer
  effectiveness relative to CsA, standardized histologic grading of EAU: 80%
[1]; intravitreal, once on day 11 after immunization with S-antigen
  prevention of EAU development in treated eye: prevented the development of EAU in the treated eye only at doses of 500 ng
[2]
  outcome of EAU after treatment for 14 days: manifested a "rebound" and expressed severe ocular disease
[3]; equivalent intracameral dosages
  effectiveness relative to cyclosporine A in ocular inflammatory model: at least 80%
[3]; topical administration
  prevention of expression of experimental autoimmune uveitis: does not prevent the expression of experimental autoimmune uveitis
